Source: USRE47223 (Genentech, dated 2019)
No constants are given. Whether binding was seen depends on the method and setting. Some binding calls cover weakened binding; strength is not graded here.

What was measured:
[1] = target: T1, CA125, human TAT10772 shed antigen (human, UniProt Q8WXI7 1-14451, limits assumed); experiment: Biacore, soluble Fab
T1 construct: domain: entire shed antigen; Bought reagent; also called CA125 polypeptide

[2] = target: T1, CA125, human TAT10772 shed antigen; experiment: phage-displayed Fab on immobilized CA125

binding [1]: binds | binding [2]: binds
B1: 11D10 HVR graft, Fab (Fab, V domains shown)
VH: EVQLVESGGGLVQPGGSLRLSCAASGFNIKDTYMHWVRQAPGKGLEWVGRVDPANGNTKYDPKFQGRFTISADTSKNTAYLQMNSLRAEDTAVYYCVRDYYGHTYGFAFWGQGTLVTVSS
VL: DIQMTQSPSSLSASVGDRVTITCTASSSVSSSYLHWYQQKPGKAPKLLIYSTSNLASGVPSRFSGSGSGTDFTLTISSLQPEDFATYYCHQYHRSPYTFGQGTKVEIKR
